System: CEM cells HIV-1 protection, formazan growth assay
Assay: NCI AIDS Antiviral Assay
Conditions: for IC50: measured here: growth of uninfected CEM cells
How it was run: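 Steps: treat uninfected and HIV-1-infected human CEM cells at five drug levels; quantify growth by soluble formazan; retest any compound reaching 50% protection; classify actives from the retest.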

SMILES	EC50	IC50
COc1cc2c(c(OC)c1OC)-c1ccc(OC)c(=O)cc1[C@@H](N)CC2	> 200 nM	12.3 nM
CCOC(=O)NC1CCc2cc(OC)c(OC)c(OC)c2-c2ccc(OC)c(=O)cc21 (stereo unspecified)	> 200 nM	3.31 nM
COc1cc2c(c(OC)c1OC)-c1ccc(SC)c(=O)cc1[C@@H](NC(C)=O)CC2	> 200 nM	0.955 nM
